For this assay, the target named is J chain of intact dIgA (human) (UniProt P01591). The assay is described as follows: ELISA on intact dIgA. (An ELISA detects its analyte on a solid surface through an enzyme-linked reagent.)

Chains of the proteins cited; added tags and fusions are not shown. Residues count along the entry.
UniProt P01591, residues 23-159: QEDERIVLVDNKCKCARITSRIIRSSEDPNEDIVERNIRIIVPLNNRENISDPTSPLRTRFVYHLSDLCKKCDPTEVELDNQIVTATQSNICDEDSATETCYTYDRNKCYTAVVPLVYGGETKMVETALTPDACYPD

These are yes or no findings as the source states them, for the method shown. Some binding calls cover weakened binding; strength is not graded here.

B1: CA1L 33e1 A1a3 (antibody, V domains shown)
VH: DVKLVESGEGLVKPGGSLKLSCVASGFTFSNYGMSWVRQTPEKRLEWVAFINRGGDRIYYADTVKGRFTISRDNARNTLYLQMSSLKSEDTAIYYCRGLYYYGSDYYFDYWGQGTTLTVSS
VL: DIQMTQSPASLSTSVGETVTITCRASGNIHNYLAWSQQKQGNSPQLLVYNAKTLAEGVPSRFSGSGSGTQYSLKINSLQPEDFGSYYCHHYYSTPYTFGSGTKLEIK
Regarding B1, the binding entry is “binds”.

The record behind these values is patent US20220144970A1.
